# Source: doi:10.1101/2019.12.13.867358 (bioRxiv, 2019)
# These are yes or no findings as the source states them, for the method shown. Some entries that bind do so weakly or less than the wild type.
# T1: Smc4 E1352Q (S. cerevisiae) (UniProt Q12267)
# T1 sequence: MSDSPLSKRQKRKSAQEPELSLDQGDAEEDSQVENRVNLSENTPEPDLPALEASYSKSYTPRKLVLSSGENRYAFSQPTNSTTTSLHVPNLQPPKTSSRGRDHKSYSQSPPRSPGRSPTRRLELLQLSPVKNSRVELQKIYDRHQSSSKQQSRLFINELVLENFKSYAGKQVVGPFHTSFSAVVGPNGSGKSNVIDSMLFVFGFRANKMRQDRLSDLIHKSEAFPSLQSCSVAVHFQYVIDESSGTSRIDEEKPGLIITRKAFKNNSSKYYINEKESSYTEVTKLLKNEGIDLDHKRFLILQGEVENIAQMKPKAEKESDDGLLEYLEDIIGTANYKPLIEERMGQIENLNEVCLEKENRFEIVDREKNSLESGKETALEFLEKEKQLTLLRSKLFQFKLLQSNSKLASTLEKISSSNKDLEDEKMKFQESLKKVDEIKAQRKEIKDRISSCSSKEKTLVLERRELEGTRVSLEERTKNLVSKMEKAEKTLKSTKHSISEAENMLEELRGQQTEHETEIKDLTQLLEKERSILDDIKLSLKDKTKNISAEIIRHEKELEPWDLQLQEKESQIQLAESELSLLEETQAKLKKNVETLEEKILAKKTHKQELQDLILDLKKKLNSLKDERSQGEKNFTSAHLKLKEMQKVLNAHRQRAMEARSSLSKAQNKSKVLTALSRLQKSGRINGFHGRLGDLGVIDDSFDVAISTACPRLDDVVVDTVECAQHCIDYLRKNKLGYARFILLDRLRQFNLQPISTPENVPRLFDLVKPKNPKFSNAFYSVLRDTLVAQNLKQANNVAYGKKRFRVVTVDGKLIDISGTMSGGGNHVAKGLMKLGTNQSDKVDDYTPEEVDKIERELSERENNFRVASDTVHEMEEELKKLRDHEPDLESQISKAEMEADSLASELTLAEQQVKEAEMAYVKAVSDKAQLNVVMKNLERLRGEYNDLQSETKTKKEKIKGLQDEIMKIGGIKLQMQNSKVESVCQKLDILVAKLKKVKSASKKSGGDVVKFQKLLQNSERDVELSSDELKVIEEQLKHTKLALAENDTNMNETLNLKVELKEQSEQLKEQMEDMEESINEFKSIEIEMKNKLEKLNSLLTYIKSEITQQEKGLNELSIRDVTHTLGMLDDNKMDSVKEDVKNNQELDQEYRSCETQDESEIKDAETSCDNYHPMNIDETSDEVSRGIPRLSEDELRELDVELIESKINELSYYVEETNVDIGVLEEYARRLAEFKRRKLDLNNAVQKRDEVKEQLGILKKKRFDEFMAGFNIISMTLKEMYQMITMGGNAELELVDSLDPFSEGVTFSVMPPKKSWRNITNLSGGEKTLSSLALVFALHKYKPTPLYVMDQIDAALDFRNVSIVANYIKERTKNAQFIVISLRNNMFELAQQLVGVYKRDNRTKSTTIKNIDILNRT
# Molecular target: T1, Smc4 E1352Q (S. cerevisiae)
# Assay: tandem affinity co-purification
binder,measurement,value
"Ycs4 (protein, UniProt Q06156 1-1176) MSGFSLSEYLTKFQTTDRESYPRLQDPSRELNVIIDQLAVSPEQIDASPDSLEALIDLCHDFPHLTPKLQTQLSYLISSSLSNLSKDIKANLSSNVNFTEIGGLIPQWKRHLEEYGYLIQVLLTFLQDELHKVSSQSTNLNRSAKNSKNDSANVELFKRDCNQMENLLESITKLLEINLSKIFQTTPEKDLFIGLFTRPLFVLLEIEPVTKVSSLKMFIQRILAMCVKNHGQSSSIQSSLMTNLTYFLHLSVFNAELLKLLNDEYNYPQLTEDILKEISTRVFNAKDTTGPKAISNFLIKLSELSPGIMLRQMNLVITLLNNSSITLRCSVVEACGNIVAELAQDPQTMEHYKQQIAVLIELLEERFQDSNPYVRTKAIQGCSKICDLSSKFNKSKAKFTSLAVRSLQDRSSLVRRNSVKLLSKLLLKHPFKAIHGSQLRLSEWEEYLKGSESQLNSTLKKVESQETLNDTIERSLIEEEVEQDEGQCRTELEGSFNKSAELSRIENEVENINATNTSVLMKLKLMIVYYKDAISFIKEIHKSIELISNLLFSKNRNEVLESMDFLVLADAFDIELSEFGIKKMLHLVWMKGTNDEGTSISVHLIECYKQLFLTAPDSCNMQEKAAHIAKNLINLSIGASIADLASLEQLLGMMYEQKLIDQHVINILWAIYNSASKASMQKEQNVNNRDSEKGFSKEQIHGSIIILGMLSLADNEIALKGLESLLNIGLGAVGLKDLTLCRYSCLALERMVPKRSTIITKAINQELEDVAVKKLYAIIINYTKDNEYYPMCEQALSALFTISSKPDILATDLIREKTMMTFGKPEEEDSILSLEQSSRVVSLSQLLFIVGQVAIKTLVYLEKCEAEFKKRKIEAETRNGKVKNQGADVTNTTQDNGGDKELEMIGGTNEDDFTDAIQFVKENELLFGEKSILGKFCPIVEEIVSNSSRFSDPMLQRTATLCLEKLMCLSSKYCEKSLPLLITVMEKSPDPTIRSNAVLGLGDMAVCFNNLVDENTDYLYRRLHDENLMVQRTCLMTVTFLILAGQVKVKGQLGEMAKCLDNPDQGISDMCRLFFTELASKDNAIYNGFIDIFSNLSSDDLLGKESFKKIIKFLLTFIDKERHQKQLNEKLVGRLRKCETQKQWDDIAFVLNNLPYKNEDVTALLEQGFKVVSAKE",binding,binds
